Source: the supplement of paper PMC10849652
The other results are listed elsewhere or left out. Residues, ends and D or L forms follow the SMILES beside them. *: point of attachment. Cbz = O=C(OCc1ccccc1)*

Chains of the proteins cited; added tags and fusions are not shown. Lines headed by an entry give the natural chain unless they say otherwise; changes in a name come on top.
UniProt Q96CS7: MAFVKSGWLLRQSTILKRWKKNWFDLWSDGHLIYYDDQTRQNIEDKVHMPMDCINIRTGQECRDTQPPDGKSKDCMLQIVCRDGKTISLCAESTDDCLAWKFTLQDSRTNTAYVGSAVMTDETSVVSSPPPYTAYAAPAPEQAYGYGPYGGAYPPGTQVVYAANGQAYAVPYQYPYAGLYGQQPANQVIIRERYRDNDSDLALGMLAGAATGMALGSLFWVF
UniProt Q8N2A8: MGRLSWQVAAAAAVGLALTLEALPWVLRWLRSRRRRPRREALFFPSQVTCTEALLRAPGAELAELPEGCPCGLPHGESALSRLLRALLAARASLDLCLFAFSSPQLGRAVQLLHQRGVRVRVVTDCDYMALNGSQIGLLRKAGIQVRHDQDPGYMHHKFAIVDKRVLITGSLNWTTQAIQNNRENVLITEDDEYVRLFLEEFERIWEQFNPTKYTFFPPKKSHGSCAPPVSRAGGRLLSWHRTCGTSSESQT
UniProt P55347: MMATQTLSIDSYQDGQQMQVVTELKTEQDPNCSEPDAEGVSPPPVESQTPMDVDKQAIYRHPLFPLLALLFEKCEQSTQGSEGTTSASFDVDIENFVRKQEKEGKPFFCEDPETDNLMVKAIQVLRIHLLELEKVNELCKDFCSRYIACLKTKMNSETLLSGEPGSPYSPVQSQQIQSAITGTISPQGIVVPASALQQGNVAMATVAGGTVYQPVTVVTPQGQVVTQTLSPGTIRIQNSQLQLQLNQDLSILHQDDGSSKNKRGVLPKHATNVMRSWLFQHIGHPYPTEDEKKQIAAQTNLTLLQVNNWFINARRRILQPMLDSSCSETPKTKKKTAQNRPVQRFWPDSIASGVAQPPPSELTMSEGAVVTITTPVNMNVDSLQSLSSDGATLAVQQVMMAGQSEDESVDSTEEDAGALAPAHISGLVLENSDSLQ
UniProt Q9P1Y6: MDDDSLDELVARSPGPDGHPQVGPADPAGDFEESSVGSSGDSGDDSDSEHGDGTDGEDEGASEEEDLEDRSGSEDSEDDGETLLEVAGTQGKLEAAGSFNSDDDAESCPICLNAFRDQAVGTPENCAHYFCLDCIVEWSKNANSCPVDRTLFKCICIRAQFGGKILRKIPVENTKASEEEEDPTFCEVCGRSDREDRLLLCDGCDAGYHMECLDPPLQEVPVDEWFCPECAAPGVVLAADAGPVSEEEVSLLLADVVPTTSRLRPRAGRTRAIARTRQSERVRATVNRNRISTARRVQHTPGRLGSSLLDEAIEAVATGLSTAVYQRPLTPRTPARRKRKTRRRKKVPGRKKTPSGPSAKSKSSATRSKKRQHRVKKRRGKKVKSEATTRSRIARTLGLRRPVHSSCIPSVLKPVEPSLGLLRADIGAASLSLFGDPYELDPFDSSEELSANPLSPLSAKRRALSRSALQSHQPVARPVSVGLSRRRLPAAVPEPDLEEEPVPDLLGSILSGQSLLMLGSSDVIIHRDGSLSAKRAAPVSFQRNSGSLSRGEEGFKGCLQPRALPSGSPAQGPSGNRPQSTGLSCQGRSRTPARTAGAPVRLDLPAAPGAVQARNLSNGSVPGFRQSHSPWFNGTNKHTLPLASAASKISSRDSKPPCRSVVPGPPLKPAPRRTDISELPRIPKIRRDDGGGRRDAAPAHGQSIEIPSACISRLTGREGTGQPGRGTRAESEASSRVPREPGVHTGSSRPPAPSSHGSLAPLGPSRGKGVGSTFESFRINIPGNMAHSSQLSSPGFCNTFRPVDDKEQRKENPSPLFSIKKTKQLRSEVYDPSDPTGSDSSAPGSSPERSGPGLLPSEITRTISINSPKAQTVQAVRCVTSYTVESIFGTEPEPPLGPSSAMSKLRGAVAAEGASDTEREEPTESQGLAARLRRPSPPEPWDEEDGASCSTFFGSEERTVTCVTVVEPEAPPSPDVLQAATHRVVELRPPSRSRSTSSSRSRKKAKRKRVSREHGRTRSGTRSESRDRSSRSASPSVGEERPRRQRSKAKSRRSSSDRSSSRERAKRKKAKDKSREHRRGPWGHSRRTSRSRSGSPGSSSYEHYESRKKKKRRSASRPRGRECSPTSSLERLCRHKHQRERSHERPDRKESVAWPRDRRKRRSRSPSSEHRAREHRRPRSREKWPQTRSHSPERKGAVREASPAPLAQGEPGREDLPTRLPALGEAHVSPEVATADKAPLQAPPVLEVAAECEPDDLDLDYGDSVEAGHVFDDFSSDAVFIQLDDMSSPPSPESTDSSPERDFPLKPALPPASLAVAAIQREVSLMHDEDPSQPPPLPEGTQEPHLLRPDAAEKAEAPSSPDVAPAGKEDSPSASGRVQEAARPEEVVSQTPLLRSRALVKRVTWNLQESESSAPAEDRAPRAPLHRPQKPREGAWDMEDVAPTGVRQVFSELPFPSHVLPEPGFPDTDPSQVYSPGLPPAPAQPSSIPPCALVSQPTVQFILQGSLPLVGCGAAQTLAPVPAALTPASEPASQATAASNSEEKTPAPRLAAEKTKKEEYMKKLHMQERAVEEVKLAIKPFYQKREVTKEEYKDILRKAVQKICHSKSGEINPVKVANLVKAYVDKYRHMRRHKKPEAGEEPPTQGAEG
UniProt Q8IUZ5: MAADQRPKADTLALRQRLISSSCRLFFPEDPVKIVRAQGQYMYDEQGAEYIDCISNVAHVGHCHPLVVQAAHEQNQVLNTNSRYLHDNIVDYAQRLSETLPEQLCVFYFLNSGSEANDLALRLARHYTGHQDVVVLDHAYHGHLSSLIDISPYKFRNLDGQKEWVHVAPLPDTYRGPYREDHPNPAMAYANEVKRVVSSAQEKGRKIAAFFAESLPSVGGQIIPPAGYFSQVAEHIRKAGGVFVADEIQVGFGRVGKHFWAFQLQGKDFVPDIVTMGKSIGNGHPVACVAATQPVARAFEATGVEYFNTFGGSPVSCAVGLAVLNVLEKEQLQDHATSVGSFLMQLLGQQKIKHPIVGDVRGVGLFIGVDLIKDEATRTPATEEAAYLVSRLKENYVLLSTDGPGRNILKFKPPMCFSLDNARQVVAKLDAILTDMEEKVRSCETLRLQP
UniProt P11309, whole entry, looked up: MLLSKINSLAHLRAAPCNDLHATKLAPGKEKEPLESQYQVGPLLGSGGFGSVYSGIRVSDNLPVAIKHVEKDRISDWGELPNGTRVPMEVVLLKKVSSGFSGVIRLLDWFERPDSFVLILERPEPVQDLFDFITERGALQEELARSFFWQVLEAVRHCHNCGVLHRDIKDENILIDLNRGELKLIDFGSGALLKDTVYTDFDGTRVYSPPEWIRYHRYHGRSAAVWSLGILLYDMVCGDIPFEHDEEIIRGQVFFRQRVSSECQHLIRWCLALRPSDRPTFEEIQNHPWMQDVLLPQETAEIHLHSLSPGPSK
UniProt Q9NUJ7: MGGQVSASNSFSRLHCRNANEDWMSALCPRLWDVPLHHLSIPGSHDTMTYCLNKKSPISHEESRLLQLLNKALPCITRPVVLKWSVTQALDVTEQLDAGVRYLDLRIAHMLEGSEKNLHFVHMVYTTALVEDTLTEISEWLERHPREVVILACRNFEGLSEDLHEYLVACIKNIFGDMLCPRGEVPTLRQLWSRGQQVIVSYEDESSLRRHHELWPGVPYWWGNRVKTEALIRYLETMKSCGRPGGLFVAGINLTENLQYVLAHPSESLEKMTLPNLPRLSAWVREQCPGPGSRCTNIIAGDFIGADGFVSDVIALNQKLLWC
UniProt P36871: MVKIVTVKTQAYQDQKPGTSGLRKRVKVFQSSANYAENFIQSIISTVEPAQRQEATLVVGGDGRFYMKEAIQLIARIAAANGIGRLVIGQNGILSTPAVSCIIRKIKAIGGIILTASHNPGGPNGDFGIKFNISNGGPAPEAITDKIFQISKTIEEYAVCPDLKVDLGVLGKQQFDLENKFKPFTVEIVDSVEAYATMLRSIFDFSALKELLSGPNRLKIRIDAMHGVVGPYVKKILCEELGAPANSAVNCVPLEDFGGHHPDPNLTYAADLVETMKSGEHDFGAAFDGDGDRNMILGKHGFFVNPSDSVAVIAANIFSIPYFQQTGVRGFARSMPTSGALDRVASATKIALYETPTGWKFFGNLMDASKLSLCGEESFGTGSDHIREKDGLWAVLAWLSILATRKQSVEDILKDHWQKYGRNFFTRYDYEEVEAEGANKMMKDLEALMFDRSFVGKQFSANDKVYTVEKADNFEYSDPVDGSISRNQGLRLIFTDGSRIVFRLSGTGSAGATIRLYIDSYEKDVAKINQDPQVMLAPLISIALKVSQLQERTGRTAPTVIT
UniProt Q99569: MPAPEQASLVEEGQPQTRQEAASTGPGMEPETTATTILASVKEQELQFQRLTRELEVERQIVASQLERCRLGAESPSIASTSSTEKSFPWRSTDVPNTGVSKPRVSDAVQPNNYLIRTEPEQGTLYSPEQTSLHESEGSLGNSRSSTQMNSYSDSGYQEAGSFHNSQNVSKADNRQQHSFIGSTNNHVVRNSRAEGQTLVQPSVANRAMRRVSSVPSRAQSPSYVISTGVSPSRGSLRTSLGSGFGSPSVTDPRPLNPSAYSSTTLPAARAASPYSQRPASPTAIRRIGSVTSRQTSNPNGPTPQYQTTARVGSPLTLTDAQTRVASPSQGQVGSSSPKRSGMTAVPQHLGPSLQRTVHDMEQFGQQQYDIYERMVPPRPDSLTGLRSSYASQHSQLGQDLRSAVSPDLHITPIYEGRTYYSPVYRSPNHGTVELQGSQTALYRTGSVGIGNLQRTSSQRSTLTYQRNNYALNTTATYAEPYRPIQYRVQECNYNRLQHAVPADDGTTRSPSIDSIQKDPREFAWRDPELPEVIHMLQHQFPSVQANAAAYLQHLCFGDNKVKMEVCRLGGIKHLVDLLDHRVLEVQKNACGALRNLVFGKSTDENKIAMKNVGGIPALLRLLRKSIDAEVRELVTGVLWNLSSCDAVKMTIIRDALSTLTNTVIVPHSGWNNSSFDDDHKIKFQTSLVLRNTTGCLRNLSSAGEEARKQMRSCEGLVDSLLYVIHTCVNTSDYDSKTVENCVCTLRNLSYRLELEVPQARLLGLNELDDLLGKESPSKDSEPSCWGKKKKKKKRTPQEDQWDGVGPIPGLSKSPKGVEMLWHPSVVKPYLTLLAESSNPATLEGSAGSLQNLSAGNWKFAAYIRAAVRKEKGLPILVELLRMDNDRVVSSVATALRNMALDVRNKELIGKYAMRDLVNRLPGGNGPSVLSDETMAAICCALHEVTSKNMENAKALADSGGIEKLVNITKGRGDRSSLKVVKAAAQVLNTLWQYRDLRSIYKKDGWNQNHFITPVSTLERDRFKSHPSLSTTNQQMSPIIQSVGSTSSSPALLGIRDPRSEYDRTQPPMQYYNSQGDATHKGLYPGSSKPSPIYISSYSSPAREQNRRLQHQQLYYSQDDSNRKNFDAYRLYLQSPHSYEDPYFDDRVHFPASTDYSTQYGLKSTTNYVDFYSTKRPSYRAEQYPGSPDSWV
UniProt Q7Z7B1: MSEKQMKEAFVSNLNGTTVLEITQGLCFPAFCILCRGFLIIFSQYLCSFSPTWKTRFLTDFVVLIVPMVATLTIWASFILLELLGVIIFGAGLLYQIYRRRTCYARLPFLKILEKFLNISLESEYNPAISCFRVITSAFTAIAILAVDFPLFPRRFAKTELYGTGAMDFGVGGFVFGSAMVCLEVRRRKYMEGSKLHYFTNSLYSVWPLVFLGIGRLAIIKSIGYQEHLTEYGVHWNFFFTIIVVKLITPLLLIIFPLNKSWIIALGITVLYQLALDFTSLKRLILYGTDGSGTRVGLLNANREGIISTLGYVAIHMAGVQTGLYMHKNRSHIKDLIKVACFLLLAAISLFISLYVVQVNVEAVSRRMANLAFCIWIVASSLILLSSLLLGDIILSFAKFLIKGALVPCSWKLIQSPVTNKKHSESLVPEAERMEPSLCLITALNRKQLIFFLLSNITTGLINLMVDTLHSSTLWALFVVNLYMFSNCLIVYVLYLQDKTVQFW
UniProt Q9Y2B9: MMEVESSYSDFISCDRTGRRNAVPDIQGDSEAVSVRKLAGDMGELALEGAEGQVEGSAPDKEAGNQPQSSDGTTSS
UniProt Q9BZM1: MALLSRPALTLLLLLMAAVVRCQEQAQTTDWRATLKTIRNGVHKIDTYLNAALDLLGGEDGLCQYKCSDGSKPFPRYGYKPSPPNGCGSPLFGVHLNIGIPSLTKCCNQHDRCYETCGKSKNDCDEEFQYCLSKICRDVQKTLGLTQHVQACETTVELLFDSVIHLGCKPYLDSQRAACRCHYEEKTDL
UniProt Q9NRD5, whole entry, looked up: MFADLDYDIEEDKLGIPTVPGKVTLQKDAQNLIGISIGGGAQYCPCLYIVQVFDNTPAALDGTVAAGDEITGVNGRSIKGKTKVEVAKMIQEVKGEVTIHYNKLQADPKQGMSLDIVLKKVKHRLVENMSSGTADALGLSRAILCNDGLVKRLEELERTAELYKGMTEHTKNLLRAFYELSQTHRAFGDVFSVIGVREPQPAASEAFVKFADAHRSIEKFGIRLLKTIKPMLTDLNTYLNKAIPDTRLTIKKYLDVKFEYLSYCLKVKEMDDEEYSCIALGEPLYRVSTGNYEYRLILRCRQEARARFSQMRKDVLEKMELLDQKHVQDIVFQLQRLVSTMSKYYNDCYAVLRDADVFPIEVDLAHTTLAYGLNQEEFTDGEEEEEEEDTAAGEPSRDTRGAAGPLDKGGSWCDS

Experiments:
Test in all cases: log2 fold change, soluble protein after heating vs DMSO (PISA); higher = thermal stabilisation; K562 cells, 10 uM, 30 min; active = over 0.2 and 3.5 SD of the protein, either way, in both replicates (recomputed)
[1] = compound: CC(=O)c1cnc2ccc(-c3cc(Cl)c(O)c(Cl)c3)nc2c1N[C@H]1CC[C@H](CN(C)C)CC1
Outline: (§1)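 K562 cells at 2×10^6 cells/mL were given 10 μM compound for 30 min. Aliquots then went through 3 min of heating across 48°C-58°C, were pooled, and were extracted in PBS with 0.5% NP-40 at 4°C, and the supernatant after 21,000xg for 90 min was quantified by TMTpro 16plex LC-MS/MS with channel sums equalised. Thermal stability relative to control samples, from duplicates, is given as log2 fold change.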

vemurafenib = compound: CCCS(=O)(=O)Nc1ccc(F)c(C(=O)c2c[nH]c3ncc(-c4ccc(Cl)cc4)cc23)c1F [vemurafenib]
Outline: as §1

ibrutinib = compound: C=CC(=O)N1CCC[C@@H](n2nc(-c3ccc(Oc4ccccc4)cc3)c3c(N)ncnc32)C1 [ibrutinib]
Outline: as §1

[2] = compound: CC1=CC=C(C=C1)SC2=C3C=C(SC3=CN=C2)C(=O)N
Outline: as §1

[3] = compound: CCCS(=O)(=O)Nc1ccc(F)c(C(=O)c2c[nH]c3ncc(Cl)cc23)c1F
Outline: as §1

barasertib = compound: CCN(CCCOc1ccc2c(Nc3cc(CC(=O)Nc4cccc(F)c4)[nH]n3)ncnc2c1)CCOP(=O)(O)O [barasertib]
Outline: as §1

ralimetinib = compound: CC(C)(C)Cn1c(N)nc2ccc(-c3[nH]c(C(C)(C)C)nc3-c3ccc(F)cc3)nc21 [ralimetinib]
Outline: as §1

[4] = compound: CC(C)C[C@@H](C=O)NC(=O)[C@H](CC(C)C)NC(=O)[C@H](CC(C)C)NC(=O)OCc1ccccc1
Outline: as §1

[5] = compound: CC1=C(C2=C(C=C1)C(=O)C3=CC=CC=C3N2CCCN)C
Outline: as §1

[6] = compound: CC1=C(C=C(C=C1)NC(=O)C2=CC(=CC=C2)C(C)(C)C#N)NC3=CC4=C(C=C3)N=CN(C4=O)C
Outline: as §1

[7] = compound: CC1=C(C=C(C=C1)NC(=O)C2=CC(=CC=C2)N(C)C)NC(=O)C3=CC=C(C=C3)O
Outline: as §1

[8] = compound: CCCc1cc(C)[nH]c(=O)c1CNC(=O)c1cc(-c2ccnc(N3CCN(C)CC3)c2)cc2c1cnn2C(C)C
Outline: as §1

IRAK-1-4 Inhibitor I = compound: C1COCCN1CCN2C3=CC=CC=C3N=C2NC(=O)C4=CC(=CC=C4)[N+](=O)[O-] [IRAK-1-4 Inhibitor I]
Outline: as §1

[9] = compound: CC(C)(O)CC(=O)NCCn1ccc2ncnc(Nc3ccc(Oc4cccc(C(F)(F)F)c4)c(Cl)c3)c21
Outline: as §1

pinometostat = compound: CC(C)N(C[C@H]1O[C@@H](n2cnc3c(N)ncnc32)[C@H](O)[C@@H]1O)[C@H]1C[C@@H](CCc2nc3cc(C(C)(C)C)ccc3[nH]2)C1 [pinometostat]
Outline: as §1

[10] = compound: CC1=NC(=CC=C1)C2=C(N=C(N2)C(C)(C)C)C3=CC4=NC=CN=C4C=C3
Outline: as §1

Nexturastat A = compound: CCCCN(Cc1ccc(C(=O)NO)cc1)C(=O)Nc1ccccc1 [Nexturastat A]
Outline: as §1

[11] = compound: CC(C)C1=C2N=C(C=C(N2N=C1)NCC3=CC=CC=C3)NCCCCCCN
Outline: as §1

givinostat = compound: CCN(CC)Cc1ccc2cc(COC(=O)Nc3ccc(C(=O)NO)cc3)ccc2c1 [givinostat]
Outline: as §1

[12] = compound: CC1=C(C(CC(=O)N1)C2=CC=C(C=C2)C(F)(F)F)C(=O)NC3=C(C=C4C(=C3)C=NN4)F
Outline: as §1

PKHD1 (UniProt P08F94)
log2 fold change [1]: inactive: -0.11 | log2 fold change (vemurafenib): inactive: 0.032

PLEKHB2 isoform 2 (UniProt Q96CS7)
log2 fold change (ibrutinib): inactive: 0.003 | log2 fold change [2]: inactive: -0.014 | log2 fold change [3]: inactive: -0.041 | log2 fold change (barasertib): inactive: -0.087

PHF14 (UniProt O94880)
log2 fold change (ralimetinib): inactive: 0.079 | log2 fold change [4]: inactive: 0.202 | log2 fold change [5]: inactive: -0.423 | log2 fold change [6]: inactive: -0.052 | log2 fold change [7]: inactive: -0.01 | log2 fold change (vemurafenib): inactive: 0.02 | log2 fold change [8]: inactive: 0.098

PLD6 (UniProt Q8N2A8)
log2 fold change (IRAK-1-4 Inhibitor I): inactive: 0.217 | log2 fold change [9]: inactive: -0.021 | log2 fold change (pinometostat): inactive: -0.012 | log2 fold change [6]: inactive: -0.003 | log2 fold change [2]: inactive: -0.252 | log2 fold change [10]: inactive: -0.136 | log2 fold change (Nexturastat A): inactive: 0.147 | log2 fold change (vemurafenib): inactive: 0.121 | log2 fold change [3]: inactive: -0.135

PHLPP1 (UniProt O60346)
log2 fold change [9]: inactive: 0.001 | log2 fold change [5]: inactive: 0.138 | log2 fold change (Nexturastat A): inactive: 0.113

PKNOX1 (UniProt P55347)
log2 fold change [1]: inactive: -0.128 | log2 fold change [11]: inactive: 0.086 | log2 fold change (givinostat): inactive: 0.259

PIP5K1C isoform 3 (UniProt O60331)
log2 fold change (ibrutinib): inactive: -0.106 | log2 fold change [9]: inactive: -0.119 | log2 fold change [11]: inactive: -0.213 | log2 fold change [5]: inactive: -0.142 | log2 fold change [6]: inactive: -0.043 | log2 fold change (Nexturastat A): inactive: 0.189 | log2 fold change (givinostat): inactive: 0.112 | log2 fold change (barasertib): inactive: 0.073

PHRF1 (UniProt Q9P1Y6)
log2 fold change (ralimetinib): inactive: -0.144 | log2 fold change [11]: active: 0.718 | log2 fold change [4]: inactive: 0.119 | log2 fold change [7]: inactive: -0.052 | log2 fold change [2]: inactive: -0.034 | log2 fold change [3]: inactive: -0.058 | log2 fold change [8]: inactive: 0.146 | log2 fold change (givinostat): inactive: 0.034

PHYKPL (UniProt Q8IUZ5)
log2 fold change [9]: inactive: -0.488 | log2 fold change [11]: inactive: 0.109 | log2 fold change [12]: inactive: 0.118 | log2 fold change [5]: inactive: -0.005 | log2 fold change [6]: inactive: 0.048 | log2 fold change [2]: inactive: -0.027 | log2 fold change (Nexturastat A): inactive: 0.349 | log2 fold change [3]: inactive: -0.028 | log2 fold change [8]: inactive: 0.177 | log2 fold change (givinostat): inactive: -0.055

PIM1 isoform 2 (UniProt P11309)
log2 fold change [8]: inactive: -0.566

PLAUR (UniProt Q03405)
log2 fold change [1]: inactive: -0.026

PKMYT1 (UniProt Q99640)
log2 fold change (ralimetinib): inactive: 0.331 | log2 fold change [9]: inactive: 0.123 | log2 fold change [11]: inactive: 0.145 | log2 fold change [4]: inactive: 0.377 | log2 fold change [6]: inactive: 0.044 | log2 fold change [7]: inactive: 0.049 | log2 fold change (Nexturastat A): inactive: 0.254 | log2 fold change (givinostat): inactive: -0.055

PEX5 isoform 4 (UniProt P50542)
log2 fold change [1]: inactive: -0.035 | log2 fold change (ralimetinib): inactive: 0.145 | log2 fold change [9]: inactive: 0.038 | log2 fold change [11]: inactive: 0.066 | log2 fold change [4]: inactive: 0.123 | log2 fold change [5]: inactive: -0.072 | log2 fold change [6]: inactive: 0.089 | log2 fold change [7]: inactive: -0.018 | log2 fold change (Nexturastat A): inactive: 0.145 | log2 fold change (vemurafenib): inactive: -0.066 | log2 fold change (givinostat): inactive: 0.127

PLEKHA5 isoform 6 (UniProt Q9HAU0)
log2 fold change [1]: inactive: -0.198 | log2 fold change [9]: inactive: -0.102 | log2 fold change [11]: inactive: -0.473 | log2 fold change [5]: inactive: 0.139 | log2 fold change (Nexturastat A): inactive: 0.034 | log2 fold change (vemurafenib): inactive: 0.256 | log2 fold change [8]: inactive: 0.224 | log2 fold change (givinostat): inactive: 0.129

PLCXD1 (UniProt Q9NUJ7)
log2 fold change (ibrutinib): inactive: 0.021 | log2 fold change (ralimetinib): inactive: 0.113 | log2 fold change [4]: inactive: 0.175 | log2 fold change [7]: inactive: 0.05 | log2 fold change (barasertib): inactive: -0.003

PGM1 isoform 2 (UniProt P36871)
log2 fold change [11]: inactive: 0.244 | log2 fold change (givinostat): inactive: 0.088

PKLR (UniProt F8W6W2)
log2 fold change (ibrutinib): inactive: 0.037 | log2 fold change [1]: inactive: -0.28 | log2 fold change [2]: inactive: -0.529 | log2 fold change (vemurafenib): inactive: -0.229 | log2 fold change [3]: inactive: -0.317 | log2 fold change (barasertib): inactive: -0.07

PKIB isoform 2 (UniProt Q9C010)
log2 fold change [11]: inactive: 0.102 | log2 fold change [2]: inactive: 0.217 | log2 fold change [3]: inactive: 0.079 | log2 fold change [8]: inactive: 0.044 | log2 fold change (givinostat): inactive: 0.052

PIGBOS1, A0A0B4J2F0
log2 fold change (ibrutinib): inactive: 0.145 | log2 fold change [1]: inactive: -0.065 | log2 fold change (ralimetinib): inactive: -0.1 | log2 fold change [9]: inactive: -0.017 | log2 fold change [11]: inactive: 0.03 | log2 fold change [4]: inactive: 0.035 | log2 fold change [12]: inactive: 0.048 | log2 fold change [5]: inactive: 0.085 | log2 fold change [6]: inactive: 0.02 | log2 fold change [7]: inactive: -0.051 | log2 fold change [2]: inactive: -0.026 | log2 fold change (Nexturastat A): inactive: -0.003 | log2 fold change (vemurafenib): inactive: -0.023 | log2 fold change [3]: inactive: -0.064 | log2 fold change [8]: inactive: -0.055 | log2 fold change (givinostat): inactive: 0.009 | log2 fold change (barasertib): inactive: -0.094

PKP4 (UniProt Q99569)
log2 fold change (ralimetinib): inactive: 0.152 | log2 fold change [9]: inactive: 0.084 | log2 fold change [11]: inactive: -0.027 | log2 fold change [4]: inactive: -0.09 | log2 fold change [7]: inactive: -0.044 | log2 fold change (Nexturastat A): inactive: 0.191 | log2 fold change (givinostat): inactive: -0.199

PHETA1 isoform 4 (UniProt Q8N4B1)
log2 fold change [1]: inactive: -0.123 | log2 fold change [2]: inactive: 0.02 | log2 fold change [3]: inactive: 0

PIGW (UniProt Q7Z7B1)
log2 fold change (ibrutinib): inactive: 0.053 | log2 fold change [1]: inactive: -0.075 | log2 fold change [9]: inactive: -0.054 | log2 fold change [11]: inactive: -0.278 | log2 fold change [12]: inactive: 0.081 | log2 fold change [5]: inactive: 0.055 | log2 fold change [6]: inactive: -0.064 | log2 fold change [2]: inactive: 0.048 | log2 fold change (Nexturastat A): inactive: -0.056 | log2 fold change (vemurafenib): inactive: -0.033 | log2 fold change [3]: inactive: 0.057 | log2 fold change [8]: inactive: -0.015 | log2 fold change (givinostat): inactive: 0.029 | log2 fold change (barasertib): inactive: 0.123

PKIG (UniProt Q9Y2B9)
log2 fold change [8]: inactive: 0.171

PLA2G12A (UniProt Q9BZM1)
log2 fold change (ibrutinib): inactive: 0.08 | log2 fold change [1]: inactive: -0.011 | log2 fold change (ralimetinib): inactive: -0.167 | log2 fold change [9]: inactive: -0.142 | log2 fold change [11]: inactive: -0.143 | log2 fold change [4]: inactive: 0.054 | log2 fold change [12]: inactive: 0.08 | log2 fold change [5]: inactive: -0.061 | log2 fold change [6]: inactive: -0.237 | log2 fold change [7]: inactive: 0.116 | log2 fold change [2]: inactive: 0.143 | log2 fold change (Nexturastat A): inactive: 0.159 | log2 fold change [3]: inactive: -0.093 | log2 fold change [8]: inactive: -0.235 | log2 fold change (givinostat): inactive: 0.016 | log2 fold change (barasertib): inactive: -0.146

PFN3 (UniProt P60673)
log2 fold change [1]: inactive: -0.569 | log2 fold change [9]: inactive: -0.578 | log2 fold change [5]: inactive: 0.066 | log2 fold change [6]: inactive: -0.275 | log2 fold change [2]: inactive: -0.586 | log2 fold change (Nexturastat A): inactive: -0.369 | log2 fold change (vemurafenib): inactive: 0.4 | log2 fold change [3]: inactive: -0.102 | log2 fold change [8]: inactive: 0.206

PKN3 (UniProt Q6P5Z2)
log2 fold change [6]: inactive: -0.044

PIGX isoform 2 (UniProt Q8TBF5)
log2 fold change (ibrutinib): inactive: -0.022 | log2 fold change [9]: inactive: -0.108 | log2 fold change [11]: inactive: 0.032 | log2 fold change [5]: inactive: -0.074 | log2 fold change [6]: inactive: 0 | log2 fold change (Nexturastat A): inactive: 0.251 | log2 fold change (vemurafenib): inactive: -0.104 | log2 fold change [8]: inactive: 0.029 | log2 fold change (givinostat): inactive: 0.017 | log2 fold change (barasertib): inactive: -0.059

PICK1 (UniProt Q9NRD5)
log2 fold change (ralimetinib): inactive: -0.139 | log2 fold change [9]: inactive: 0.04 | log2 fold change [4]: inactive: 0.062 | log2 fold change [12]: inactive: -0.184 | log2 fold change [6]: inactive: -0.283 | log2 fold change [7]: inactive: 0.051 | log2 fold change (Nexturastat A): inactive: -0.024 | log2 fold change [8]: inactive: -0.132
